# Data: the supplement of paper PMC6445147
# Single values of this data set are uncertain.
# B1: human tRNA-Pro; a variant is named by its letters at N, in order (parent)
# chain: GGCTCGTTGGTCTAGNGGTATGATTCTCGCTTAGGGTGCGAGAGGTCCCGGGTTCNNATCCCGGACGAGCCC
# Variants of: B1
# Assay: tRNA 3' processing efficiency (processed reads / all reads, maximum-likelihood estimate) (fraction); higher = more efficient 3' processing
# Details: HEK293T; construct: no Pol-II promoter ((-)CMV library)
row,Variant,tRNA 3' processing efficiency
1,TTC T19G T59C,0.5
2,GGG G15T G17A T53A,0.2
3,GAT G15A G17C A58T,0.25
4,CTA G18A T19C A58C,0.5
5,GAA T19A T53A A58G T59A,0.2
6,GAC A20G T53A T59G,0.25
7,AGA T8G A58C,0.2
8,TGG G18A T19C,0.14
9,GGA G9T A14G G18T,0.25
10,GTA G6A T8A A58C,0.33
11,CAA A14T T19G T59C,0.57
12,GCT A14T T19A A20T,0.4
13,ATA G9T T19C A20T,0.27
14,AAA A20T C55T A58G T59A,0.4
15,TAA A14G T54A C55G,0.2
16,CTT A14C G17T,0.17
17,GTT G2A,0.62
18,TAA G18T T19G A20T C55T,0.57
19,GGA G9A A14T T59C,0.44
20,CGG A58G,0.5
21,AAA A14G T19A T59G,0.2

row,Variant,tRNA 3' processing efficiency
1,CAA T8C G9C G17C G18C,0.57
2,GAC A14C G17T T19A,0.5
3,GAA A14T G15C G18A T59A,0.25
4,AAG A14G C55G A58T,0.17
5,GAG A14T G18A T59C,0.43
6,GAT A14G G15A T19G,0.4
7,CAT T19A A58C,0.43
8,GTA G15A T19A T59C,0.25
9,GTA G9A T19A A58C,0.2
10,GGA T8G G15T A20C T53G,0.25
11,CAA G9T A58C T59G,0.33
12,GAG A14T G15T G17C G18A A58T C70T,0.7
13,CAC A14G G15A,0.73
14,CAA T8C T19G T59G,0.57
15,GAA A14T A20G A58T T59C,0.25
16,GGA A14C G34T T54A,0.5
17,GAG G18A T19G A58T,0.25
18,TAA G15C T19C A58T T59A,0.14
19,GTG A58T T59G,0.57
20,GGA G17T G18A T19A A20T A58C,0.4
21,TTA A14T T19G,0.19

# Looked up above.
# In tRNA 3' processing efficiency, GAT A14G G15A T19G reads 0.4
# In tRNA 3' processing efficiency, GGG G15T G17A T53A reads 0.2
# In tRNA 3' processing efficiency, CGG A58G reads 0.5

# Next results follow:

row,Variant,tRNA 3' processing efficiency
1,AAA G6A A20G A58T T59C,0.5
2,AGG T19C,0.33
3,TAA A20T A58C T59A,0.18
4,GGA G1A T8C,0.84
5,CAA A14G G15T T59G,0.2
6,CAT G9T A33G A58T,0.33
7,CAC A14T A58C,0.14
8,TAA G18A A20C C55T,0.14
9,CCG T8G,0.57
10,CAA A14C A58T T59G,0.17
11,CTA T19C A58T T59C,0.56
12,GCA T8G A14T G17T G18T T19G A20T,0.17
13,GGC T19A G34A T53A,0.57
14,GTA G9A G15A G18T A58C,0.4
15,TGA A14G A20T T53G C55T,0.5
16,GTA A14T G17C A20T A58G,0.25
17,CAA T53A T59G,0.25
18,AGA T53G A58G,0.5
19,CAG G15C A58G,0.08
20,GGA A33G,0.33
21,ATC G9A,0.27

row,Variant,tRNA 3' processing efficiency
1,TGG A14G,0.33
2,GAG A20T A58G T59G,0.4
3,TGG G15T G35A C55T A58C,0.4
4,GAA T8C G9A T19A A58T,0.5
5,GAA G9A T19A A20G A58C,0.11
6,GAA G36A T53G A58G T59G,0.25
7,GGA G15T G17T T53A A58G,0.2
8,GAA T8G G17C T19A A20T A58C,0.2
9,GCA T8C G17T T19G,0.62
10,ATA A14G T19A A43T T59G,0.2
11,TAA T8G G17T G18A T59A,0.5
12,AAC A14G T19G,0.38
13,GAA G17T G50A A58G T59G,0.13
14,GTA G15C G17T T53A,0.25
15,CGT G9A,0.13
16,GAA T19A T53A A58G T59G,0.27
17,TAA A14C A20T A58T,0.17
18,TAA T19A A20T G50T A58G,0.38
19,GCA T8A G17T A58T T59C,0.33
20,GGG A14T G17C,0.25
21,TGA T8G A33G C55T,0.57
